What all share (experiment): co-IP; Flag agarose beads, 1–2 mg lysate, overnight at 4 °C; IP buffer 50 mM Tris-Cl pH 7.5, 150 mM NaCl, 1 mM EDTA, 1% Triton X-100; cells mock or arsenite treated; western blot of the precipitates
(In general: Immunoblotting shows a protein as a band on a membrane.)

Chains of the proteins cited; added tags and fusions are not shown. Lines headed by an entry give the natural chain unless they say otherwise; changes in a name come on top.
UniProt P11940: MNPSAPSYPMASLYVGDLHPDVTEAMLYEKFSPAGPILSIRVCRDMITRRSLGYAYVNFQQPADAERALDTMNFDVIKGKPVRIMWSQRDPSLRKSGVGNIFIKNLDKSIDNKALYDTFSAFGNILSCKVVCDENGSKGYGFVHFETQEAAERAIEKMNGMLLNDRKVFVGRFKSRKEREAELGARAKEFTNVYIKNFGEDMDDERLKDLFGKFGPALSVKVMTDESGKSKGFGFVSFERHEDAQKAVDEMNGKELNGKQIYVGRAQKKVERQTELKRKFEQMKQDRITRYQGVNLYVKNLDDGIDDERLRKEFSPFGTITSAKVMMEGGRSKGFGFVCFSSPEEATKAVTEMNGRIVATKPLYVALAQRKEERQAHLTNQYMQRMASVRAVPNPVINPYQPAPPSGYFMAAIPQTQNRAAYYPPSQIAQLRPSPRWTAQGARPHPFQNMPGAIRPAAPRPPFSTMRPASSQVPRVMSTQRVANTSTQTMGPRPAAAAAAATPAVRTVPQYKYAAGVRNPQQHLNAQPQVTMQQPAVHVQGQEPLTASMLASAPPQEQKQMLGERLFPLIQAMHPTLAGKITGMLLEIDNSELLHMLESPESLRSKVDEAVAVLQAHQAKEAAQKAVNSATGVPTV
UniProt Q13283: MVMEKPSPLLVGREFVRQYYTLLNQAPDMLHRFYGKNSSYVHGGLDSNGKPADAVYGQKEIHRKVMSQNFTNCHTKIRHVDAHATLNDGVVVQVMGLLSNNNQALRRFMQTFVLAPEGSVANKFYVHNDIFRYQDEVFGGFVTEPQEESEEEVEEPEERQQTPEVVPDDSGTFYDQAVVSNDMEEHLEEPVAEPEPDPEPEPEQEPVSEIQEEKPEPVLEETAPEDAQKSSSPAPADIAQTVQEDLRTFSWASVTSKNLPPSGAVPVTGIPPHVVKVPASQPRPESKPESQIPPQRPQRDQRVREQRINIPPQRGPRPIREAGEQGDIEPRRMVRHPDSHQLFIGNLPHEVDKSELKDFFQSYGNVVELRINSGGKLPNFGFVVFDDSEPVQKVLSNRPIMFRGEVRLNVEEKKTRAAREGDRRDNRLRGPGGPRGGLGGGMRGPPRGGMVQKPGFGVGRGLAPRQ
UniProt P06730: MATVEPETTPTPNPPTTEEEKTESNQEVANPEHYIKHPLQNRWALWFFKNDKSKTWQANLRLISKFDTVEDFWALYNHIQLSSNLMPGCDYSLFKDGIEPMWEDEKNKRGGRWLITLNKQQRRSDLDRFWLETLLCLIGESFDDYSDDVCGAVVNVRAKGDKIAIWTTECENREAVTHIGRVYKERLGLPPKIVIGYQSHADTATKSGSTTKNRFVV
UniProt P61081: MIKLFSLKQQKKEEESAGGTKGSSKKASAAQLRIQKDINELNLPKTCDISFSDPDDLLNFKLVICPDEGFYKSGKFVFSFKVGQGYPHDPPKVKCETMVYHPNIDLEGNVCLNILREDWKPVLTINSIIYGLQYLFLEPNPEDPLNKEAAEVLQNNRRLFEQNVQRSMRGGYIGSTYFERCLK

The target of one experiment is T1, Flag–SRSF3–K85R (human) (UniProt P84103).
T1 sequence: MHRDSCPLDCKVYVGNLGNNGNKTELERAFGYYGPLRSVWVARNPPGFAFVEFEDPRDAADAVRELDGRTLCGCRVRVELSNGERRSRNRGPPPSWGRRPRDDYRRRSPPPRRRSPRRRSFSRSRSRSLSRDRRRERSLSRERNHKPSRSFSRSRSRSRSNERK

For experiment [1], the target named is T2, Flag–SRSF3-WT (human) (UniProt P84103).
T2 sequence: T1 sequence with R85K

Experiment [2] has as its target T2, Flag–SRSF3-WT (human). The source holds these as a separate data set.

The results in this text go back to PMC4935812.

Changes are numbered by the printed parent chain. Like-named read-outs stand apart in the source and are kept apart here. These are yes or no findings as the source states them, for the method shown. Binding seen in cells or lysates may run through a third protein. Some results given as binding are weak or reduced against the parent protein; the word gives no strength. Where a sequence is shown, tags or fusion partners need not be part of it.

For “polyadenylate-binding protein 1 (PABP1) (from UniProt P11940 1-636)”, the binding entry with Flag–SRSF3–K85R (human) and with Flag–SRSF3-WT (human) [1] was “binds” each time. With G3BP1 (from UniProt Q13283 1-466), the binding entry in the experiment with Flag–SRSF3–K85R (human) and in the experiment with Flag–SRSF3-WT (human) [1] was “binds” in each case. Turning to eIF4E (from UniProt P06730 1-217), the binding result with Flag–SRSF3–K85R (human) and with Flag–SRSF3-WT (human) [1] was “binds” throughout.

For “UBE2M (from UniProt P61081 1-183) (enzyme)”, the binding entry with Flag–SRSF3-WT (human) [1] is given as “binds”.

B1: TIA-1 (protein, UniProt P31483 1-386)
chain: MEDEMPKTLYVGNLSRDVTEALILQLFSQIGPCKNCKMIMDTAGNDPYCFVEFHEHRHAAAALAAMNGRKIMGKEVKVNWATTPSSQKKDTSSSTVVSTQRSQDHFHVFVGDLSPEITTEDIKAAFAPFGRISDARVVKDMATGKSKGYGFVSFFNKWDAENAIQQMGGQWLGGRQIRTNWATRKPPAPKSTYESNTKQLSYDEVVNQSSPSNCTVYCGGVTSGLTEQLMRQTFSPFGQIMEIRVFPDKGYSFVRFNSHESAAHAIVSVNGTTIEGHVVKCYWGKETLDMINPVQQQNQIGYPQPYGQWGQWYGNAQQIGQYMPNGWQVPAYGMYGQAWNQQGFNQTQSSAPWMGPNYGVQPPQGQNGSMLPNQPSGYRVAGYETQ
Regarding B1, the binding result with Flag–SRSF3-WT (human) [2] was “binds”.
